We go through one substance from paper PMC1939850.

By UniProt entry, the sequences of proteins in these tests, tags left out. Residues count along the entry.
UniProt Q14114, residues 33-963: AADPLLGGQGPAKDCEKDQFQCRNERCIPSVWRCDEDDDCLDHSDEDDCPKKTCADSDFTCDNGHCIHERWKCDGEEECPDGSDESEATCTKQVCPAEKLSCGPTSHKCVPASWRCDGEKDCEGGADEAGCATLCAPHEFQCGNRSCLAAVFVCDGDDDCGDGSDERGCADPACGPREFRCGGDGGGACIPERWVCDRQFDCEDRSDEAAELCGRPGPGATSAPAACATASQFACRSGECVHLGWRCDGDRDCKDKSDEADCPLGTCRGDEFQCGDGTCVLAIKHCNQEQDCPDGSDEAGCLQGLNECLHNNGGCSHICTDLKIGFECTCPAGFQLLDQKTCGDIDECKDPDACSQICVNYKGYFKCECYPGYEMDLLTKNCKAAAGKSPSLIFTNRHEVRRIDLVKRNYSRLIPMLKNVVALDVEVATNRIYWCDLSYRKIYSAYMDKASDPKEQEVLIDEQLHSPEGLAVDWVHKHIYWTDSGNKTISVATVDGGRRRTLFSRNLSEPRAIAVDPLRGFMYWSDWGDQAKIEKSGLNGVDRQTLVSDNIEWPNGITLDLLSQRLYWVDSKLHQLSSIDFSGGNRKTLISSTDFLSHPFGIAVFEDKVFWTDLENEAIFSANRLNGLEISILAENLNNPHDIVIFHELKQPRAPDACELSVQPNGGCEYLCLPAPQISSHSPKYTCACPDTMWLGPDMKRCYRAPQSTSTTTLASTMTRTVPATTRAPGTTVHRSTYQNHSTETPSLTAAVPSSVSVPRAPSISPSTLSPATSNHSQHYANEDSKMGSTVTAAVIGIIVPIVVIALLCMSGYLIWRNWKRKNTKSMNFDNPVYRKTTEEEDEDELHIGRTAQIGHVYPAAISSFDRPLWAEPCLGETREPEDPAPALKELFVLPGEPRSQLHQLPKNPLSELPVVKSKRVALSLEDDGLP

The target in experiment [1] is APP695-Myc (human) (UniProt P05067). The experiment can be described thus: co-IP; N2a cells stably expressing HA-tagged ApoER2 or ApoER2-Tless, transiently transfected with APP695-Myc; lysed in Buffer HUNT (20 mM Tris-HCl pH 8.0, 100 mM NaCl, 1 mM EDTA, 1% NP40, 0.5% TX-100, 50 mM NaF); immunoprecipitated with anti-Myc (9E10) and protein A/G agarose at 4°C, blotted with anti-HA.

For experiment [2] the target is unchanged. Nature of the experiment: condition: only independent lysates of singly expressing cells combined after lysis; co-IP; independent HUNT lysates from ApoER2-HA-expressing N2a cells and from APP695-Myc-transfected parental N2a cells combined after lysis, then immunoprecipitated with anti-Myc and blotted with anti-HA.

No constants are given. Whether binding was seen depends on the method and setting. In cells and extracts the contact can be indirect. Some binding calls cover weakened binding; strength is not graded here.

Consider “ApoER2-HA (from UniProt Q14114 33-963) (receptor)”, for which the binding entry is on record as “binds” with APP695-Myc (human) [1] and “no binding” with APP695-Myc (human) [2].
